Measured values reported in patent publication US11672828B2, “Cellular receptors and uses thereof” (TRUSTEES OF BOSTON UNIVERSITY, priority 2020, dated 2023).
Entries after “also recorded” stand apart in the source; their conditions may differ. At least one compound was matched to its structure with a doubt left.

System: doxycycline inducible BirA-ER (TRE3G promoter, Tet-On 3G)
Assay: apSyN cell line with doxycycline inducible BirA-ER: Streptavidin stain and activation on anti-Biotin antibody
Type: cell-based
Settings: for fluorescent reporter activation on surface-coated anti-Biotin antibody: different levels of doxycycline

C[C@H]1c2cccc(O)c2C(=O)C2=C(O)[C@]3(O)C(=O)C(C(N)=O)=C(O)[C@@H](N(C)C)[C@@H]3[C@@H](O)[C@@H]21 [doxycycline]
fluorescent reporter activation on surface-coated anti-Biotin antibody: increased number of cells with activated reporter; also recorded: tuned in a dose-dependent manner; also recorded: increased population that activates | fluorescent reporter activation on surface-coated anti-Biotin antibody (listed as doxycyline): increased population that can respond | biotinylation of apSyN (Streptavidin surface stain) (differing concentrations of doxycycline, flow cytometry): correlation of doxycycline concentration with the overall biotinylation state; also recorded: tuned in a dose-dependent manner
